According to paper PMC6698648, “A Fanci knockout mouse model reveals common and distinct functions for FANCI and FANCD2” (Nucleic Acids Research, 2019):
No constants are given. Whether binding was seen depends on the method and setting. Some results given as binding are weak or reduced against the parent protein; the word gives no strength.

Protein sequences, listed by entry. Tags and fused reporters are not part of them.
UniProt Q9NVI1: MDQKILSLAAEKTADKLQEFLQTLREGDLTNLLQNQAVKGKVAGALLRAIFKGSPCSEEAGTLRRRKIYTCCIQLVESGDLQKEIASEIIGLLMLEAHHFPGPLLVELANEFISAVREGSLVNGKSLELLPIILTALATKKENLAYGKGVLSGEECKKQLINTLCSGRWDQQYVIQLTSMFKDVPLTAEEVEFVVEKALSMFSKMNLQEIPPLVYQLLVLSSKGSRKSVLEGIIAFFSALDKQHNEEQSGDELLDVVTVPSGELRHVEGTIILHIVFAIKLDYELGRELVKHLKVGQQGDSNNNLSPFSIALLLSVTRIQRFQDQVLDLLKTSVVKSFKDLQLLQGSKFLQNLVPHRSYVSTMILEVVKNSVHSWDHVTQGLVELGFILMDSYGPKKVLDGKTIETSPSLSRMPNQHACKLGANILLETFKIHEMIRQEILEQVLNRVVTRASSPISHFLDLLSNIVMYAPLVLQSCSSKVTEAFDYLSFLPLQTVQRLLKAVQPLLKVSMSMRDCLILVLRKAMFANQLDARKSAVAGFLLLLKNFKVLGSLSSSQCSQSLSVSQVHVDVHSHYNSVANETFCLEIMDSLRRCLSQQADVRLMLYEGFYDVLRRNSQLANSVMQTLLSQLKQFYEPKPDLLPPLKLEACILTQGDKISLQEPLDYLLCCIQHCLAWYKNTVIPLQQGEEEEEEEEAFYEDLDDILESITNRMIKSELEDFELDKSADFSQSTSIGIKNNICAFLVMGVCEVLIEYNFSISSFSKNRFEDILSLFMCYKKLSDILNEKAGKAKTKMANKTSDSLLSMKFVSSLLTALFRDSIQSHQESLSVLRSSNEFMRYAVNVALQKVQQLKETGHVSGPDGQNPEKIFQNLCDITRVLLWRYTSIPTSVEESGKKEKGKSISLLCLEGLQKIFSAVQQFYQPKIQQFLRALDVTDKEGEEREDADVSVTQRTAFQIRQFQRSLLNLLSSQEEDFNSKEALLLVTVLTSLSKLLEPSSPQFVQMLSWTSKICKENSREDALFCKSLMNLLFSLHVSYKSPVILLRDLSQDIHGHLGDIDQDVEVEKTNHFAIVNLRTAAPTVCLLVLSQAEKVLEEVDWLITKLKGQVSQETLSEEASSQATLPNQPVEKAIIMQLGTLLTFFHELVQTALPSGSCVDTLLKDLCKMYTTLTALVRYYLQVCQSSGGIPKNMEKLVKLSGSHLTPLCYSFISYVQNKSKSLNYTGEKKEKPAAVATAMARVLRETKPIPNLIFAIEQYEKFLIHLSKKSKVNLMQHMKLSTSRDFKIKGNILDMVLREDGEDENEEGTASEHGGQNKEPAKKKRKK
UniProt Q06609: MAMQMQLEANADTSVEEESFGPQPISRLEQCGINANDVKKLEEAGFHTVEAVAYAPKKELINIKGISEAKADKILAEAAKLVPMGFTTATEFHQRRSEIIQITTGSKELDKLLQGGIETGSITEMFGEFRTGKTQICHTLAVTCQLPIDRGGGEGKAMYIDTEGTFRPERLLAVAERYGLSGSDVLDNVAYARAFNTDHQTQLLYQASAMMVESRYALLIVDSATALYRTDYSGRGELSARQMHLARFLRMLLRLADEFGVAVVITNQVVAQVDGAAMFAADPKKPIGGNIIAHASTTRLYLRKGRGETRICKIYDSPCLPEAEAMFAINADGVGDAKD

Target: FANCI (UniProt Q9NVI1)
Experiment: co-IP; 250 ng FANCI with 250 ng RAD51, purified recombinant proteins, 15 min at 37°C in 50 mM Tris-HCl pH 7.5, 250, 500 or 750 mM NaCl, 0.5% NP-40; immunoprecipitated with anti-FANCI and protein A/G-sepharose at 4°C, western blot with anti-RAD51; both purified

binding: binds
Substance: Human RAD51 (from UniProt Q06609 1-339)
